In US4382892A, “Benzoxazine derivatives” (Daiichi Seiyaku Co., Ltd., priority 1980, dated 1983):

Assays:
mice = mice (i.v.)
in vivo = conditions: mouse, iv

For CCn1cc(C(=O)O)c(=O)c2cc(F)c(N3CCN(C)CC3)cc21 [1-ethyl-6-fluoro-4-oxo-7-(4-methyl-1-piperazinyl)quinoline-3-carboxylic acid], the “toxicity (in words)” value (mice) was “comparatively high toxicity” and the LD50 (in vivo) was 225 mg/kg.
